# PubChem BioAssay AID1259331 – Drosophila RNAi Screening Center – 2017
# Assay: 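Knock-downs that alter ATP level after a high zinc chloride dose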 (primary screen)
# Cell system: Drosophila S2R+ cells
# Reagent: long dsRNA against Drosophila genes
# Time to read-out: 5 days (4 days knock-down, then 1 day zinc)
# Conditions: zinc chloride at 15 mM final level for 1 day
# Measured: 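Total cellular ATP measured by luciferase luminescence as a viability proxy, turned into Z scores from three plate copies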
# Scale: mean Z score: higher = more ATP than other wells, better survival under zinc; ATP luminescence: higher = more ATP, more viable cells
# Active means: 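Hit when the absolute Z score is greater than 1.5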
# Meaning of the calls: active = hit, ATP up or down; inactive = not a hit
# In all, the deposit lists about 3,100 reagents; below is a part drawn at random. 126 of all reagents (4.1%) were called active. 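Calls are per reagent; zinc was so toxic that few knock-downs lowered ATP further, so most hits raise ATP.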 The raw values are shown without normalisation. The numbers tell different reagents against one gene apart. A plus sign joins genes that one reagent is predicted to hit. Not stated in the record: the amount of reagent.
target gene,reagent,mean Z score,"ATP luminescence, replicate 1","ATP luminescence, replicate 2",activity call
CG9864,1,-0.33,59174,65262,inactive
CG9864,2,-0.303,55676,57802,inactive
Eglp3 (Entomoglyceroporin 3),1,-0.272,50601,39422,inactive
Eglp3 (Entomoglyceroporin 3),2,-0.204,58179,58334,inactive
Or83c (Odorant receptor 83c),1,-0.502,67372,52332,inactive
Or83c (Odorant receptor 83c),2,-0.592,43931,46089,inactive
sdk (sidekick),1,-0.379,40201,42643,inactive
sdk (sidekick),2,0.0353,49588,52879,inactive
CG13654,1,0.8,35145,65074,inactive
CG13654,2,-0.508,49469,54887,inactive
opm (opossum),1,1.17,65194,60855,inactive
opm (opossum),2,0.72,72345,72637,inactive
CG34234 + Dh44-R2,1,-0.475,26291,27610,inactive
Nup93-2 (Nucleoporin 93kD-2),1,0.628,52757,51631,inactive
CG5805,1,-0.384,40877,43734,inactive
CG5805,2,0.0998,60916,59294,inactive
Rh5 (Rhodopsin 5),1,-0.213,50429,56187,inactive
Rh5 (Rhodopsin 5),2,0.214,58092,63119,inactive
Ptp99A (Protein tyrosine phosphatase 99A),1,0.342,71865,71574,inactive
Ptp99A (Protein tyrosine phosphatase 99A),2,-0.131,40468,41839,inactive
Ptp99A (Protein tyrosine phosphatase 99A),3,-0.699,41102,43725,inactive
Ptp99A (Protein tyrosine phosphatase 99A),4,-0.0371,46194,46760,inactive
Ptp99A (Protein tyrosine phosphatase 99A),5,-0.298,46674,43211,inactive
Gr47b (Gustatory receptor 47b),1,-0.154,38650,43301,inactive
Gr47b (Gustatory receptor 47b),2,-0.29,59045,55042,inactive
amx (almondex),1,-0.483,50258,48594,inactive
amx (almondex),2,0.417,59166,65228,inactive
CG15408,1,0.0458,43279,49674,inactive
CG15408,2,-0.31,52795,58317,inactive
Ir94d (Ionotropic receptor 94d),1,-0.0101,46349,49023,inactive
CG1317,1,-0.503,27473,28056,inactive
CG1317,2,0.237,64473,59790,inactive
CG9483,1,-0.421,53173,47206,inactive
CG9483,2,-0.574,41084,38016,inactive
PGRP-SB2 (Peptidoglycan recognition protein SB2),1,-0.0433,38599,47514,inactive
Pkd2 (Polycystic kidney disease 2),1,-0.13,52744,35685,inactive
Pkd2 (Polycystic kidney disease 2),2,-0.168,57780,57785,inactive
ptc (patched),1,-0.107,39868,43059,inactive
ptc (patched),2,0.122,74757,73803,inactive
CG7149,1,-0.167,49553,58454,inactive
CG7149,2,-0.186,50419,56962,inactive
bond (james bond),1,-0.0245,45535,45812,inactive
bond (james bond),2,0.336,57902,61952,inactive
Gr33a (Gustatory receptor 33a),1,0.126,54922,35736,inactive
Gr33a (Gustatory receptor 33a),2,-0.273,56979,54887,inactive
LpR1 (Lipophorin receptor 1),1,1.04,55676,65554,inactive
LpR1 (Lipophorin receptor 1),2,-0.224,35325,57919,inactive
LpR1 (Lipophorin receptor 1),3,0.471,70081,63513,inactive
Ir41a (Ionotropic receptor 41a),1,-0.137,34176,42662,inactive
Ir41a (Ionotropic receptor 41a),2,-0.134,50858,39028,inactive
Cds + Setx,1,0.0235,59409,58145,inactive
Osi18 (Osiris 18),1,-0.104,75090,59380,inactive
Ir76a (Ionotropic receptor 76a),1,-1.04,23891,21829,inactive
CG13384,1,-0.28,52446,52075,inactive
tinc (tincar),1,-0.47,34982,42302,inactive
tinc (tincar),2,0.885,36885,72105,inactive
CG11262,1,-0.0719,73546,62587,inactive
CG11262,2,0.593,60529,59037,inactive
kumpel (kin of rumpel),1,0.0194,37275,58969,inactive
kumpel (kin of rumpel),2,-0.261,36439,53173,inactive
kumpel (kin of rumpel),3,0.0352,37107,58883,inactive
kumpel (kin of rumpel),4,0.0044,36953,59946,inactive
kumpel (kin of rumpel),5,0.247,38119,59997,inactive
kumpel (kin of rumpel),6,-0.366,33576,54004,inactive
kumpel (kin of rumpel),7,-0.35,47549,55130,inactive
kumpel (kin of rumpel),8,-0.128,57122,56270,inactive
kumpel (kin of rumpel),9,0.166,53670,49092,inactive
kumpel (kin of rumpel),10,-0.252,54802,59842,inactive

Taken from above.
Ptp99A (Protein tyrosine phosphatase 99A) #1, ATP luminescence, replicate 1: 71865
Value for Rh5 (Rhodopsin 5) #1 in “ATP luminescence, replicate 1”: 50429
Gr33a (Gustatory receptor 33a) #2, ATP luminescence, replicate 2 → 54887
Under “activity call”, Ptp99A (Protein tyrosine phosphatase 99A) #2 reads inactive
For “activity call”, LpR1 (Lipophorin receptor 1) #3 reads inactive
Under “activity call”, Ir41a (Ionotropic receptor 41a) #1 is entered as inactive
